PubChem BioAssay AID330 (DTP/NCI, 2004)
The list is a part of this screen's results and no random one: it gathers tests that were run many times, whatever their T/C, doses with no T/C, and many T/C values between a quarter and a half above the control. Further doses and runs are listed elsewhere. T/C is the treated group as % of the vehicle group. Some entries give survivors of the animals treated and no T/C: the source files T/C as zero there, which appears to mark a toxic dose or a test without result, not a measured value. Some doses without a T/C left all or most animals alive at the check, yet need not have been tolerated: survival well below the control is almost never listed, so the zero probably covers shortened survival too. Survivors were counted at the toxicity check, usually on the fifth day, unless a day is given; later deaths do not show. Schedule codes are those of the source, taken here to give the interval after Q, in days (D) or hours (H), and the number of doses after X. Some entries were tested several times; the values are given in rising order. Marks such as (2×) give the number of equal values in this list. Where survival is the endpoint, the PubChem record calls one and a half times the control and up active, and a quarter to a half above the control has no call in these data; cut-offs in other NCI protocols can differ.

System: P388 leukemia ip, CD2F1 mice, survival T/C
Experiment: NCI In Vivo Anticancer Drug Screen. Data for tumor model P388 Leukemia (intraperitoneal) in CD2F1 (CDF1) mice
Conditions: T/C endpoint: median survival time, higher T/C = longer survival
[1] = dose: 400.0 mg/kg/injection, schedule: Q04DX002 (ip), vehicle: Klucel (hydroxypropylcellulose) (HPC)
[2] = dose: 100.0 mg/kg/injection, schedule: Q01DX005 (ip), vehicle: saline with Tween-80
[3] = dose: 200.0 mg/kg/injection, schedule: Q01DX005 (ip), vehicle: saline with Tween-80
[4] = dose: 120.0 mg/kg/injection, schedule: Q01DX005 (ip), vehicle: saline with Tween-80
[5] = dose: 240.0 mg/kg/injection, schedule: Q01DX005 (ip), vehicle: saline with Tween-80
[6] = dose: 25.0 mg/kg/injection, schedule: Q01DX009 (ip), vehicle: saline with Tween-80
[7] = dose: 200.0 mg/kg/injection, schedule: Q01DX005 (ip), vehicle: Klucel (hydroxypropylcellulose) (HPC)
[8] = dose: 60.0 mg/kg/injection, schedule: Q01DX005 (ip), vehicle: saline
[9] = dose: 120.0 mg/kg/injection, schedule: Q01DX005 (ip), vehicle: saline
[10] = dose: 240.0 mg/kg/injection, schedule: Q01DX005 (ip), vehicle: saline
[11] = dose: 240.0 mg/kg/injection, schedule: Q01DX005 (ip), vehicle: Klucel (hydroxypropylcellulose) (HPC)
[12] = dose: 100.0 mg/kg/injection, schedule: Q01DX009 (ip), vehicle: Klucel (hydroxypropylcellulose) (HPC)

For `CCOC(=O)NC(C)(C)CN(C(=O)OCC)c1ccccc1`, the T/C (dose: 100.0 mg/kg/injection, schedule: Q04DX003 (ip), vehicle: saline with Tween-80) was 127 % of control.

For `CCO/C=N/NC(=O)CNC(=O)C=[N+]=[N-]`, the survivor count (dose: 270.0 mg/kg/injection, schedule: Q01DX009 (ip), vehicle: water) was 5 of 6, the survivor count (dose: 400.0 mg/kg/injection, schedule: Q01DX009 (ip), vehicle: water) was 3 of 6 and the survivor count (dose: 600.0 mg/kg/injection, schedule: Q01DX009 (ip), vehicle: water) was 0 of 6.

With `Cc1ccc(N=Nc2c(-c3ccccc3)nn(C(=S)S)c2-c2ccccc2)cc1` the survivor count (dose: 100.0 mg/kg/injection, schedule: Q04DX002 (ip), vehicle: Klucel (hydroxypropylcellulose) (HPC)) was 5 of 5 and the survivor count [1] was 5 of 5.

In the case of `Nc1nc2ccc(NCc3ccc(C(=O)NC(CCC(=O)O)C(=O)O)cc3)cc2c(=O)[nH]1` (configuration not stated), the T/C [2] is reported as 127 and 135 % of control, the survivor count [3] is reported as 0 of 5 and the survivor count (dose: 400.0 mg/kg/injection, schedule: Q01DX005 (ip), vehicle: saline with Tween-80) is reported as 0 of 5.

In the case of `Nc1nnc2nc(CC(=O)c3cccc([N+](=O)[O-])c3Cl)c(=O)[nH]n12`, the survivor count [4] is reported as 0 of 6 and the survivor count [5] is reported as 0 of 6.

With `COC(=O)c1nc(N)nc(C(=O)OC)c1C(=O)C(C)C` the survivor count [5] was 0 of 6.

With `CC(=O)ON(C(C)=O)c1ccc(C(=O)OC2(C)CC(C)(C)N=N2)cc1` (configuration not stated) the survivor count [6] was 6 of 6 and the survivor count (dose: 50.0 mg/kg/injection, schedule: Q01DX009 (ip), vehicle: saline with Tween-80) was 6 of 6.

`COc1ccc(N=Nc2c(C)[nH]n(C)c2=O)cc1` was tested, and the survivor count (dose: 400.0 mg/kg/injection, schedule: Q04DX002 (ip), vehicle: saline with Tween-80) was 4 of 6.

For `CCCCCCCCCCn1cc[nH]c1=S`, the survivor count [7] was 3 of 6.

With `C=C(CN(C)C)C(=O)c1ccc(OC)cc1` the survivor count (dose: 7.5 mg/kg/injection, schedule: Q01DX005 (ip), vehicle: saline with Tween-80) was 1 of 6, the survivor count (dose: 15.0 mg/kg/injection, schedule: Q01DX005 (ip), vehicle: saline with Tween-80) was 0 of 6 and the survivor count (dose: 30.0 mg/kg/injection, schedule: Q01DX005 (ip), vehicle: saline with Tween-80) was 0 of 6. For the same molecule, the survivor count [8] was 0 of 6, the survivor count [9] was 0 of 6 and the survivor count [10] was 0 of 6.

With `c1ccc2[nH]c(CN(CCN(Cc3nc4ccccc4[nH]3)Cc3nc4ccccc4[nH]3)Cc3nc4ccccc4[nH]3)nc2c1` the survivor count (dose: 50.0 mg/kg/injection, schedule: Q01DX005 (ip), vehicle: Klucel (hydroxypropylcellulose) (HPC)) was 1 of 5, the survivor count (dose: 100.0 mg/kg/injection, schedule: Q01DX005 (ip), vehicle: Klucel (hydroxypropylcellulose) (HPC)) was 0 of 5 and the survivor count [7] was 0 of 5.

For `Clc1ccc2ccc3cccnc3c2n1`, the survivor count [10] was 0 of 6.

With `O=c1oc2nc(-c3ccccc3)[nH]c(=O)c2c2c1CCCC2` the survivor count (dose: 60.0 mg/kg/injection, schedule: Q01DX005 (ip), vehicle: Klucel (hydroxypropylcellulose) (HPC)) was 6 of 6, the survivor count (dose: 120.0 mg/kg/injection, schedule: Q01DX005 (ip), vehicle: Klucel (hydroxypropylcellulose) (HPC)) was 5 of 6 and the survivor count [11] was 0 of 6.

`COc1cccc2c1C(=N)c1c(O)c3c(c(O)c1C2=O)CC(O)(C(=O)CO)CC3OC1CC(N2CCOCC2C#N)C(O)C(C)O1` (configuration not stated) was tested, and the T/C (dose: 0.25 mg/kg/injection, schedule: Q04DX003 (ip), vehicle: saline) was 148 % of control, the T/C (dose: 0.5 mg/kg/injection, schedule: Q04DX003 (ip), vehicle: saline) was 145 % of control and the survivor count (dose: 2.0 mg/kg/injection, schedule: Q04DX003 (ip), vehicle: saline) was 5 of 6 on day 9.

In the case of `Cc1ccccc1N=C(CCl)Nc1ccccc1C`, the survivor count [3] is reported as 0 of 5.

In the case of `NC(=O)C1C2C=CC(O2)C1C(=O)O` (configuration not stated), the survivor count [8] is reported as 0 of 6, the survivor count [9] is reported as 0 of 6 and the survivor count [10] is reported as 0 of 6.

In the case of `COc1ccc(Nc2c3ccccc3nc3ccccc23)cc1`, the T/C [6] is reported as 141 % of control.

In the case of `Cc1ccc2nc3sc(=O)sc3nc2c1`, the survivor count [11] is reported as 3 of 6.

For `CCC(=O)OC(C)COc1ccc(C(C)(C)C)cc1` (configuration not stated), the T/C (dose: 600.0 mg/kg/injection, schedule: Q01DX009 (ip), vehicle: saline with Tween-80) was 125 % of control.

`CCCCCN(CCCCC)CC(O)c1c(OC)ccc2ccccc12` (configuration not stated) was tested, and the survivor count [12] was 1 of 6, the survivor count (dose: 200.0 mg/kg/injection, schedule: Q01DX009 (ip), vehicle: Klucel (hydroxypropylcellulose) (HPC)) was 0 of 6 and the survivor count (dose: 400.0 mg/kg/injection, schedule: Q01DX009 (ip), vehicle: Klucel (hydroxypropylcellulose) (HPC)) was 0 of 6.

With `CC(=O)/C(=C\c1ccccc1)C(=O)CCN(C)C` the T/C (dose: 50.0 mg/kg/injection, schedule: Q01DX005 (ip), vehicle: saline with Tween-80) was 125 % of control, the T/C [2] was 125 and 129 % of control and the survivor count [3] was 0 of 5 and 1 of 5.

In the case of `O=c1[nH]cc(CS)c(=O)[nH]1`, the survivor count (dose: 200.0 mg/kg/injection, schedule: Q01DX009 (ip), vehicle: saline) is reported as 5 of 6.

`NC(=O)c1ccccc1NCCc1ccccc1` was tested, and the survivor count (dose: 200.0 mg/kg/injection, schedule: Q04DX003 (ip), vehicle: saline with Tween-80) was 6 of 6.

In the case of `N[C@@H](C(=O)O)[C@@H]1C=CCCC1`, the survivor count (dose: 400.0 mg/kg/injection, schedule: Q04DX002 (ip), vehicle: saline) is reported as 0 of 6.

With `COc1cc2c(c(OC)c1OC)-c1ccc(SC)c(=O)cc1[C@@H](NC1OC(CO)C(O)C(O)C1O)CC2` (some centres not stated) the T/C (dose: 12.5 mg/kg/injection, schedule: Q01DX009 (ip), vehicle: saline, evaluated on day 30) was 127, 128, 130 % of control, the T/C (dose: 12.5 mg/kg/injection, schedule: Q01DX009 (ip), vehicle: saline, evaluated on day 60) was 130 % of control and the T/C (dose: 25.0 mg/kg/injection, schedule: Q01DX009 (ip), vehicle: saline, evaluated on day 30) was 148 % of control (2×). The T/C (dose: 25.0 mg/kg/injection, schedule: Q01DX009 (ip), vehicle: saline, evaluated on day 60) was 145 % of control, the survivor count (dose: 50.0 mg/kg/injection, schedule: Q01DX009 (ip), vehicle: saline) was 6 of 6 and the survivor count (dose: 100.0 mg/kg/injection, schedule: Q01DX009 (ip), vehicle: saline) was 4 of 6 and 5 of 6 (2×).

In the case of `Cn1c(=S)sc2nc3ccccc3n2c1=S`, the T/C (dose: 60.0 mg/kg/injection, schedule: Q01DX005 (ip), vehicle: saline with Tween-80) is reported as 129 % of control, the T/C [4] is reported as 128 % of control and the survivor count [5] is reported as 4 of 6 and 5 of 6.

`C[C@]12CCCC[C@@H]1CC[C@@H]1[C@@H]2CC[C@]2(C)[C@@H](N(CCO)CCCO)CC[C@@H]12` was tested, and the survivor count [12] was 6 of 6.

In the case of `CCC[CH2][Sn]([Cl])([CH2]CCC)[S]C(=S)NCCNC(=S)[S][Sn]([Cl])([CH2]CCC)[CH2]CCC`, the survivor count (dose: 6.25 mg/kg/injection, schedule: Q01DX009 (ip), vehicle: Klucel (hydroxypropylcellulose) (HPC)) is reported as 6 of 6, the survivor count (dose: 12.5 mg/kg/injection, schedule: Q01DX009 (ip), vehicle: Klucel (hydroxypropylcellulose) (HPC)) is reported as 0 of 6 and the survivor count (dose: 25.0 mg/kg/injection, schedule: Q01DX009 (ip), vehicle: Klucel (hydroxypropylcellulose) (HPC)) is reported as 0 of 6. For the same molecule, the survivor count (dose: 50.0 mg/kg/injection, schedule: Q01DX009 (ip), vehicle: Klucel (hydroxypropylcellulose) (HPC)) was 0 of 6.

With `Cc1ccc(S(=O)(=O)N/N=C/c2c(Cl)n(C(=O)c3cccc(C)c3)c3ccccc23)cc1` the survivor count (dose: 100.0 mg/kg/injection, schedule: Q01DX001 (ip), vehicle: Klucel (hydroxypropylcellulose) (HPC)) was 6 of 6, the survivor count (dose: 200.0 mg/kg/injection, schedule: Q01DX001 (ip), vehicle: Klucel (hydroxypropylcellulose) (HPC)) was 5 of 6 and the survivor count (dose: 400.0 mg/kg/injection, schedule: Q01DX001 (ip), vehicle: Klucel (hydroxypropylcellulose) (HPC)) was 6 of 6.

For `Cn1c(C2(C)C(=O)NC(=O)c3cnccc32)cc2ccccc21` (configuration not stated), the survivor count [1] was 3 of 6.

`C=C(C)C(=NC(C)C)Nc1ccccc1Cl` was tested, and the survivor count [7] was 1 of 6.
